For this experiment, the target named is T1, Ubiquitin specific peptidase 37 (USP37) (human (endogenous in MCF-7)) (UniProt Q86T82).
T1 sequence: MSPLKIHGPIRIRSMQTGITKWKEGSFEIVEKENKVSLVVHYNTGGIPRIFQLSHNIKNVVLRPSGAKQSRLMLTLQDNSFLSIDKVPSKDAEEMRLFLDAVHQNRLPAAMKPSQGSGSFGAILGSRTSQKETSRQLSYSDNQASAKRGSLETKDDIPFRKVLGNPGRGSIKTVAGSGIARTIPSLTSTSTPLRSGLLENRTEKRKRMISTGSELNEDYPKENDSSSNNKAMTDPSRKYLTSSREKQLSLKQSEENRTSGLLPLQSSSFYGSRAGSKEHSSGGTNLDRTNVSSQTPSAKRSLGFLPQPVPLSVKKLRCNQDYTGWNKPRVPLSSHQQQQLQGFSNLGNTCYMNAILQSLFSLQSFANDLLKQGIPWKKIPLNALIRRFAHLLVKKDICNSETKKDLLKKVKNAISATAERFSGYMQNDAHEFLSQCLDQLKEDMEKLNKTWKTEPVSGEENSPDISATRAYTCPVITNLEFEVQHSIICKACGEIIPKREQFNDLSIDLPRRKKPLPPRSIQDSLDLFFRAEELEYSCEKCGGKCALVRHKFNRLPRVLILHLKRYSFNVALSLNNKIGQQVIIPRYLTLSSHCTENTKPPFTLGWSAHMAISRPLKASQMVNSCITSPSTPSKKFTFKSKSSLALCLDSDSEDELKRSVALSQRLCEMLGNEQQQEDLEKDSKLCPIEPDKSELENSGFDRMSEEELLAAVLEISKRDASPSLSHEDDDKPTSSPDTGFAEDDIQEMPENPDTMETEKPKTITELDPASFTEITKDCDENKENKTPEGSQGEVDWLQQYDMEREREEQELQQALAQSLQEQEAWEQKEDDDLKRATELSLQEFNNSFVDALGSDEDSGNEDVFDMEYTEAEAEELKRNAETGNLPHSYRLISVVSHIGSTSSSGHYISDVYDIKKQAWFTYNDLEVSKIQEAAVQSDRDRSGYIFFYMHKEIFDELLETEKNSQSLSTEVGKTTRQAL
As to the kind of experiment: co-IP; 8 x 10^6 MCF-7 cells lysed in IP lysis buffer with protease inhibitor; IP Kit (Proteintech Group); endogenous proteins; which protein was precipitated not given.

The chains behind the UniProt entries cited, without tags or fusion partners.
UniProt P08151: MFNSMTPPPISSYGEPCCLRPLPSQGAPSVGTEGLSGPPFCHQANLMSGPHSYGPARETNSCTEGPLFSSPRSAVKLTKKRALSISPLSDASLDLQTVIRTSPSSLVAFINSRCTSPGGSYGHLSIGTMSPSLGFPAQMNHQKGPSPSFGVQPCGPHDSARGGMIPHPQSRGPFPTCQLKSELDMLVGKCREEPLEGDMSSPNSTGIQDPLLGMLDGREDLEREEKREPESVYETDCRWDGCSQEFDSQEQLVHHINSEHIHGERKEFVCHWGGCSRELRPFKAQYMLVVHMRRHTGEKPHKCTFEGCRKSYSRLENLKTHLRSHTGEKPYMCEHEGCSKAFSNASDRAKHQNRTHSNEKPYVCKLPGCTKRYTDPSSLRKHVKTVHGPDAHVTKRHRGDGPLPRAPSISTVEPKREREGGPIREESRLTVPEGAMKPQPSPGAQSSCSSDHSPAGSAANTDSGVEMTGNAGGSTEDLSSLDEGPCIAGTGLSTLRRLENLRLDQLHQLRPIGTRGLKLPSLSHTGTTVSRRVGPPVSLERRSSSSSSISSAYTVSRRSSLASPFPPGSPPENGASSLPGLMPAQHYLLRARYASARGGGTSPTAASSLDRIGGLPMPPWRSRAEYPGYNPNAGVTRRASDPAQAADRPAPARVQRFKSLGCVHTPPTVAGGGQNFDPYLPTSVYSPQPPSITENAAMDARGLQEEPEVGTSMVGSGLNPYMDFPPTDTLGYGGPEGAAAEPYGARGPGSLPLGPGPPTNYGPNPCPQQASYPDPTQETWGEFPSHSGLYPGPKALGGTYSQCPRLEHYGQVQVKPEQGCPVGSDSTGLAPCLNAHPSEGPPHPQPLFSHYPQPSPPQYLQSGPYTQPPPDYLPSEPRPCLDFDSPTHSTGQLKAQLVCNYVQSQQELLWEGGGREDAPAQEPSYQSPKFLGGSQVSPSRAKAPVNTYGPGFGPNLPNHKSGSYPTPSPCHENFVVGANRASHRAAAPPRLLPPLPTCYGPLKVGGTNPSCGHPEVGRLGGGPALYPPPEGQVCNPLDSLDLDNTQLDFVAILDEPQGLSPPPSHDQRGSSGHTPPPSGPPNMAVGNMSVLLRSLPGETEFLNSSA

No constants are given. Whether binding was seen depends on the method and setting. Binding seen in cells or lysates may run through a third protein. Some entries that bind do so weakly or less than the wild type.

The source of these data is publication PMC6258492.

Regarding “glioma-associated oncogene 1 (Gli-1) (from UniProt P08151 1-1106)”, the binding entry is given as “binds”.
